Key:
[1] = biological target: acetylcholinesterase (Homo sapiens, UniProt P22303)
[2] = tested on: Cyno IL-23R; assay type: binding; details: read-out: ELISA (nM) Cyno, IC50
[3] = tested on: rat splenocytes; assay: Rat Splenocyte Assay (IL-17A); assay type: cell-based; details: IL-17A produced by activated splenocytes exposed to IL-23; read-out: Cell assay (nM) Rat (Spleen), IC50
Protocol: A new assay developed was the rat splenocyte assay.
Briefly, splenocytes freshly isolated from rat were seeded in 96-well tissue culture plates in complete medium containing IL-10. […] Changes in IL-17A levels in the supernatants were detected using an ELISA.

Protein sequences, listed by entry. Tags and fused reporters are not part of them. Residues count along the entry.
UniProt P22303, 32-614: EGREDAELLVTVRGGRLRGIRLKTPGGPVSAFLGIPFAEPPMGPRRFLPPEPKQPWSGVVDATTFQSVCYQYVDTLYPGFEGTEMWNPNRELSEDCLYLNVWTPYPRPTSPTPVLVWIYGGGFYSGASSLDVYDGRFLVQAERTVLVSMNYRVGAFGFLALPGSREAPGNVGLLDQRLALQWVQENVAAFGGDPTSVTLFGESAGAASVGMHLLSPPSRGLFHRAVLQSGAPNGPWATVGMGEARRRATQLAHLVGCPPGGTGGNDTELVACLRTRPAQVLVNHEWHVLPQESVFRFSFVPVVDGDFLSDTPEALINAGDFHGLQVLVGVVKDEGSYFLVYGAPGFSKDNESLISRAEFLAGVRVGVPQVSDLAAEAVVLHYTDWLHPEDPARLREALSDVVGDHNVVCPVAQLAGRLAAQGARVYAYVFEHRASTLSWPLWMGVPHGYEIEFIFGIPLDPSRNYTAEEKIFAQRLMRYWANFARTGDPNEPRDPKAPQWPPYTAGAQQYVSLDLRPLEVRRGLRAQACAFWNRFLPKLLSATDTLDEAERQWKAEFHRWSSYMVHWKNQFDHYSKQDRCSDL

[4] = biological target: human IL-12Rβ1 (Homo sapiens, UniProt P42701); assay: biochemical
[5] = biological target: T1, human IL6R (Homo sapiens, UniProt P08887); assay: cell free ELISA for human IL6R (IL-6/IL-6R); assay type: binding; details: read-out: Selectivity (ELISA, nM) IL-6/IL-6R, IC50
T1 sequence (P08887 20-468): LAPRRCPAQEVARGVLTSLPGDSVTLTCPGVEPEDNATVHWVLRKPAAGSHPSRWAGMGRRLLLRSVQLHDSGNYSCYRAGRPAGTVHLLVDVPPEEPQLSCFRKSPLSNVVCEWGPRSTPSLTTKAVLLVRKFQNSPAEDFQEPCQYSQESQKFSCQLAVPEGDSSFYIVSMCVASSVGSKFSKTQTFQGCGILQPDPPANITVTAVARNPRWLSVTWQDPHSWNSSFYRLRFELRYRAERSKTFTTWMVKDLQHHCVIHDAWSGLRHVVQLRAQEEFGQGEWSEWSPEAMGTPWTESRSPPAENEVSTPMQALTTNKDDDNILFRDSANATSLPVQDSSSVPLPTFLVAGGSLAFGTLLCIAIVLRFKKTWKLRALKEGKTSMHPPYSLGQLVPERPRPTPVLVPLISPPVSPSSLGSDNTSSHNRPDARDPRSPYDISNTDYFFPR

[6] = tested on: IL-23R in human DB cells; assay: Schild analysis, Human DB Cell (pSTAT3); assay type: cell-based; details: 0.3-100 nM peptide

Compound	activity in the acetylcholinesterase assay [1]	IC50 [2]	IC50 [3]	IC50 [4]	IC50 [5]	Schild slope [6]
CC(=O)N[C@@H]1CCSC[C@@H](C(=O)N[C@@H](Cc2ccc(OCCN)cc2)C(=O)N[C@@H](Cc2ccc3ccccc3c2)C(=O)NC2(C(=O)N[C@@H](CCC(=O)O)C(=O)N[C@@H](CC(N)=O)C(=O)N[C@@H](CC(N)=O)C(N)=O)CCOCC2)NC(=O)[C@H](CCC(N)=O)NC(=O)[C@H](Cc2c[nH]c3ccccc23)NC(=O)[C@H]([C@@H](C)O)NC(=O)[C@@H](CCC(N)=O)NC1=O [SEQ ID NO: 980]	33%	1.3 nM	11.5 nM	> 100000 nM	> 100000 nM	
CC(=O)NCCCC[C@H](NC(=O)C(C)(C)NC(=O)[C@H](Cc1ccc2ccccc2c1)NC(=O)[C@H](Cc1ccc(OCCN)cc1)NC(=O)[C@H]1NC(=O)[C@H](CCC(N)=O)NC(=O)[C@H](Cc2c[nH]c3ccccc23)NC(=O)[C@H]([C@@H](C)O)NC(=O)[C@H](CC(N)=O)NC(=O)[C@@H](NC(C)=O)C(C)(C)SSC1(C)C)C(=O)N[C@@H](CC(N)=O)C(=O)N[C@@H](CC(N)=O)C(N)=O [SEQ ID NO: 1169, Ac-[Pen]-NTWQ-[Pen]-[Phe[4-(2-aminoethoxy)]-[2-Nal]-[Aib]-[Lys(Ac)]-NN-NH2]						0.91
